According to article PMC4691038:
Results are given in words; binding and its absence hold for the method and conditions named. For some of these results: Binding seen in cells or lysates may run through a third protein. Some entries that bind do so weakly or less than the wild type. For some of these results: Where a sequence is shown, tags or fusion partners need not be part of it. Each block holds one molecule with its values, some of them ahead of it.

Sequences of proteins named here, by UniProt entry; tags and fusion partners are left off. A change or cut given only in a name is not applied to a line headed by its entry.
UniProt Q9NZM3: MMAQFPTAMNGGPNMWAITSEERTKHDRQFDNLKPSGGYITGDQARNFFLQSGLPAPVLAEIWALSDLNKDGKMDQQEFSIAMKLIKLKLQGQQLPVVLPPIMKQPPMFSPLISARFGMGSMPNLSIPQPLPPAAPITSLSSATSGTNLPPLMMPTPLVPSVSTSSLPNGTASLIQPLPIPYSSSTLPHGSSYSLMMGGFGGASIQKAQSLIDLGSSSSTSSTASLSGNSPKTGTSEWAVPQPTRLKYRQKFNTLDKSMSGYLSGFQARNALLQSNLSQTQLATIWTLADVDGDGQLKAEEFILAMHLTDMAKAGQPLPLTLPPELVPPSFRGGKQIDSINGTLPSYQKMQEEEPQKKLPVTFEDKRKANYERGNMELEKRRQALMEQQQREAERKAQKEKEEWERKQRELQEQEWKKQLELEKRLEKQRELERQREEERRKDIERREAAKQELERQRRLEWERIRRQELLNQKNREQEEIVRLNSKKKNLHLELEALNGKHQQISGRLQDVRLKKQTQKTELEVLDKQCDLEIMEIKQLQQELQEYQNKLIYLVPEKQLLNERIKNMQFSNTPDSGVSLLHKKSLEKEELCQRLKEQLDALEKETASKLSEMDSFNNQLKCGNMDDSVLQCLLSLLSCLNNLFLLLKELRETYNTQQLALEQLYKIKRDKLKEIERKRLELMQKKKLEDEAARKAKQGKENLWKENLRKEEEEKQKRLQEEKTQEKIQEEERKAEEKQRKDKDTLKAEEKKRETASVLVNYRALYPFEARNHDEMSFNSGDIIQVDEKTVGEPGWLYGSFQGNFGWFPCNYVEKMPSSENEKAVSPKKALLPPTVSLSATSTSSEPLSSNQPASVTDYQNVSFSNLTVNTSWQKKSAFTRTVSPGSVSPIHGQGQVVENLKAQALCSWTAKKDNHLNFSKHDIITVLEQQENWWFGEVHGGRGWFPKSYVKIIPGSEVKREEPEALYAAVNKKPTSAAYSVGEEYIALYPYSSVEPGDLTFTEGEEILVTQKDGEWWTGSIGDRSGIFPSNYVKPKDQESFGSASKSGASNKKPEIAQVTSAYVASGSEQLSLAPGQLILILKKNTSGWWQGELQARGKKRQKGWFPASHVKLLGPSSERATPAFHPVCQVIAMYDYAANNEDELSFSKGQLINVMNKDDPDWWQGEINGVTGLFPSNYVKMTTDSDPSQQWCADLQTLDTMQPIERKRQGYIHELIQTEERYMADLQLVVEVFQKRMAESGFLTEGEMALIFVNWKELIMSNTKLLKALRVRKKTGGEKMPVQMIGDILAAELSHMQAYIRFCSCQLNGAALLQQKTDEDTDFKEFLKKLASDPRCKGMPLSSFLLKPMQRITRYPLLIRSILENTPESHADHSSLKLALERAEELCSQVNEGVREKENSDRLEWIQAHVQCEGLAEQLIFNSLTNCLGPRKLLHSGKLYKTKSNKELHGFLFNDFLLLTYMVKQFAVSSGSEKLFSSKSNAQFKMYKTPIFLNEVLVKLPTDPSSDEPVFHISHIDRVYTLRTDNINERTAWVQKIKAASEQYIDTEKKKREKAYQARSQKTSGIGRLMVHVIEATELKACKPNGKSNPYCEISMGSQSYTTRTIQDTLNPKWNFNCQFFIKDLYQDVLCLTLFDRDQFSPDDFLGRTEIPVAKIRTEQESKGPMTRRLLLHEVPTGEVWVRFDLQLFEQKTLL
UniProt Q12929: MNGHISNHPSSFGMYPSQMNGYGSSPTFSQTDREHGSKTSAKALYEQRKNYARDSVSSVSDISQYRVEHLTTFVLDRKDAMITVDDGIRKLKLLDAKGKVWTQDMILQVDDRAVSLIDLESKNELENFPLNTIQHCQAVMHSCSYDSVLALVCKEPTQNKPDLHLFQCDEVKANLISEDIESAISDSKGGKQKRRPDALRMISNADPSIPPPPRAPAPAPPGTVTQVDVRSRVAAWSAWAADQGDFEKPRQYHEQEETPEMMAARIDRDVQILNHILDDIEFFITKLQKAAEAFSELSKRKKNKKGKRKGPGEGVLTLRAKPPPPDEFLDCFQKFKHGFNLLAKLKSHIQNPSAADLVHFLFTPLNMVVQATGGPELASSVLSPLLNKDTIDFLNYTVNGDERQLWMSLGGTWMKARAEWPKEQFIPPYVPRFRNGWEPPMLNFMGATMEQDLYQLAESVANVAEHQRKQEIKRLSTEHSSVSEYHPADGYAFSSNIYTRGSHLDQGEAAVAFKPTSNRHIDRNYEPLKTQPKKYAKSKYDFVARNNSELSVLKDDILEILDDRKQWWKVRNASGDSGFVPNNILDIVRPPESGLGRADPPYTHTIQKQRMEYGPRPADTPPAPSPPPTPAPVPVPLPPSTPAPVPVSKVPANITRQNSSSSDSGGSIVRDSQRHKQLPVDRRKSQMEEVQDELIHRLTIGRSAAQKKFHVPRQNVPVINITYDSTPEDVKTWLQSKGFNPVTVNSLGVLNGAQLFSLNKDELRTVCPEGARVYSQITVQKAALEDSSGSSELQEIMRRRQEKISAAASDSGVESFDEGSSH

Assays:
[1] = molecular target: endogenous ITSN2L of HeLa cells (human (endogenous in HeLa)) (UniProt Q9NZM3); test: co-IP; HeLa cells overexpressing Myc-tagged EPS8; quantitative immunoprecipitation of ITSN2L, RABEP1 detected
Myc-RABEP1 (human) = molecular target: T1, Myc-RABEP1 (human) (UniProt Q15276); test: co-IP; HeLa cells transfected with Myc-ITSN2L or Myc-RABEP1, RIPA lysate, IP with rabbit polyclonal anti-Myc, blot with anti-RABEP1 or anti-ITSN2L
T1 sequence: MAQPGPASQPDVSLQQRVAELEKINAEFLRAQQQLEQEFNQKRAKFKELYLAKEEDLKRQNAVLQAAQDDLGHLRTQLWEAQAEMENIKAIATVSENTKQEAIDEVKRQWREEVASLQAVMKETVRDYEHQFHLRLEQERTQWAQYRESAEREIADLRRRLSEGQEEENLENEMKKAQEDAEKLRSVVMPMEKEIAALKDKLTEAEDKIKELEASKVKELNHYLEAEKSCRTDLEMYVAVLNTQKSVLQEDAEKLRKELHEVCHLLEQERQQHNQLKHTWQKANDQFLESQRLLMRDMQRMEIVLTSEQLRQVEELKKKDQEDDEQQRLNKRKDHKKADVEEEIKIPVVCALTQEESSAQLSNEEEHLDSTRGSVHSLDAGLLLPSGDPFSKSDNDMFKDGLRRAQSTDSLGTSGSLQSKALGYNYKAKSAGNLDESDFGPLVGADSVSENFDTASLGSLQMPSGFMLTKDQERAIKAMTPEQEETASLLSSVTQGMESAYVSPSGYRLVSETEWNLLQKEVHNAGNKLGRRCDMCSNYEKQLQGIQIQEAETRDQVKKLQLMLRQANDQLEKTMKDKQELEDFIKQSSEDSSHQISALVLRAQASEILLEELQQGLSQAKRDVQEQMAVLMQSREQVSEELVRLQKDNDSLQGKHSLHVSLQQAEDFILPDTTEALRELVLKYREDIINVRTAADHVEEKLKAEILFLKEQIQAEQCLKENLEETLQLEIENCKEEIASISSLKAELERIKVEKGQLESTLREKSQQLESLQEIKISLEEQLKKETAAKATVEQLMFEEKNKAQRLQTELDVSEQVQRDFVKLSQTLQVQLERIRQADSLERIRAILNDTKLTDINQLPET

[2] = molecular target: T2, endogenous RABEP1 of HeLa cells (human (endogenous in HeLa)) (UniProt Q15276); test: co-IP; untransfected HeLa lysate, IP with anti-RABEP1 or anti-ITSN2L, blot with the other antibody (endogenous proteins)
T2 sequence: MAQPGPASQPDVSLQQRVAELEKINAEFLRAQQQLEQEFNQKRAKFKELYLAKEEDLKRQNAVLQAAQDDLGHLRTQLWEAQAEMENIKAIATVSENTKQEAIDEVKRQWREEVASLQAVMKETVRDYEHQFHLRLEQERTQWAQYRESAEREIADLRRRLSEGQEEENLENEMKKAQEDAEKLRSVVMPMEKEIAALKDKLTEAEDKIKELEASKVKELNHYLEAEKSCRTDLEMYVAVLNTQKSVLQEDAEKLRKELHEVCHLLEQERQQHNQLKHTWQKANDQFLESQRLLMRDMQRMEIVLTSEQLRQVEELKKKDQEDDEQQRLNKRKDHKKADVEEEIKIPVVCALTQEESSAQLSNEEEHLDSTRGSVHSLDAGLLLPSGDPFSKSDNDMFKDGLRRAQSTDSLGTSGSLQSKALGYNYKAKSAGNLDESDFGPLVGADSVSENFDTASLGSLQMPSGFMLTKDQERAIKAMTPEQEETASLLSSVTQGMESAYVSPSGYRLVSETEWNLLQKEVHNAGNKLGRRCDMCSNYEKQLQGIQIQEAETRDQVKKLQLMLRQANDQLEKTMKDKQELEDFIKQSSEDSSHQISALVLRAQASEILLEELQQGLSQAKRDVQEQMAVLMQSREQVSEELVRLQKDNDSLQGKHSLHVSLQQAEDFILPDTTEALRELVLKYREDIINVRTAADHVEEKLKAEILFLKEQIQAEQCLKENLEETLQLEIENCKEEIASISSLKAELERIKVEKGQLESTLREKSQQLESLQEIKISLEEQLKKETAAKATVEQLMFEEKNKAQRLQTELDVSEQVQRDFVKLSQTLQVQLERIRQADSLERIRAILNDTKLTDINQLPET

Myc-ITSN2L (human) = Myc-ITSN2L (human) (UniProt Q9NZM3); test: co-IP; HeLa cells transfected with Myc-ITSN2L or Myc-RABEP1, RIPA lysate, IP with rabbit polyclonal anti-Myc, blot with anti-RABEP1 or anti-ITSN2L
[3] = molecular target: endogenous ITSN2L of HeLa cells (human (endogenous in HeLa)) (UniProt Q9NZM3); test: co-IP; untransfected HeLa lysate, IP with anti-RABEP1 or anti-ITSN2L, blot with the other antibody (endogenous proteins)
[4] = molecular target: ITSN2L (Intersectin-2Long) expressed from pDBLeu-ITSN2L (human) (UniProt Q9NZM3); test: two-hybrid; directed test in yeast MaV203: pDBLeu baits with pPC86 preys, Beta-Gal assay (blue colonies)

Molecule: endogenous ITSN2L of HeLa cells (from UniProt Q9NZM3-1 1-1697)
binding (Myc-RABEP1 (human)): binds | binding [2]: binds

B1: endogenous RABEP1 of HeLa cells (protein, UniProt Q15276 1-862)
chain: MAQPGPASQPDVSLQQRVAELEKINAEFLRAQQQLEQEFNQKRAKFKELYLAKEEDLKRQNAVLQAAQDDLGHLRTQLWEAQAEMENIKAIATVSENTKQEAIDEVKRQWREEVASLQAVMKETVRDYEHQFHLRLEQERTQWAQYRESAEREIADLRRRLSEGQEEENLENEMKKAQEDAEKLRSVVMPMEKEIAALKDKLTEAEDKIKELEASKVKELNHYLEAEKSCRTDLEMYVAVLNTQKSVLQEDAEKLRKELHEVCHLLEQERQQHNQLKHTWQKANDQFLESQRLLMRDMQRMEIVLTSEQLRQVEELKKKDQEDDEQQRLNKRKDHKKADVEEEIKIPVVCALTQEESSAQLSNEEEHLDSTRGSVHSLDAGLLLPSGDPFSKSDNDMFKDGLRRAQSTDSLGTSGSLQSKALGYNYKAKSAGNLDESDFGPLVGADSVSENFDTASLGSLQMPSGFMLTKDQERAIKAMTPEQEETASLLSSVTQGMESAYVSPSGYRLVSETEWNLLQKEVHNAGNKLGRRCDMCSNYEKQLQGIQIQEAETRDQVKKLQLMLRQANDQLEKTMKDKQELEDFIKQSSEDSSHQISALVLRAQASEILLEELQQGLSQAKRDVQEQMAVLMQSREQVSEELVRLQKDNDSLQGKHSLHVSLQQAEDFILPDTTEALRELVLKYREDIINVRTAADHVEEKLKAEILFLKEQIQAEQCLKENLEETLQLEIENCKEEIASISSLKAELERIKVEKGQLESTLREKSQQLESLQEIKISLEEQLKKETAAKATVEQLMFEEKNKAQRLQTELDVSEQVQRDFVKLSQTLQVQLERIRQADSLERIRAILNDTKLTDINQLPET
binding [1]: binds | binding (Myc-ITSN2L (human)): binds | binding [3]: binds

Continued, values first:

binding [1]: binds
Molecule: Myc-tagged EPS8 (from UniProt Q12929 1-822)

binding [4]: binds
B2: RABEP1 (rabaptin-5) expressed from pPC86-RABEP1 (protein, UniProt Q15276 1-862)
chain: MAQPGPASQPDVSLQQRVAELEKINAEFLRAQQQLEQEFNQKRAKFKELYLAKEEDLKRQNAVLQAAQDDLGHLRTQLWEAQAEMENIKAIATVSENTKQEAIDEVKRQWREEVASLQAVMKETVRDYEHQFHLRLEQERTQWAQYRESAEREIADLRRRLSEGQEEENLENEMKKAQEDAEKLRSVVMPMEKEIAALKDKLTEAEDKIKELEASKVKELNHYLEAEKSCRTDLEMYVAVLNTQKSVLQEDAEKLRKELHEVCHLLEQERQQHNQLKHTWQKANDQFLESQRLLMRDMQRMEIVLTSEQLRQVEELKKKDQEDDEQQRLNKRKDHKKADVEEEIKIPVVCALTQEESSAQLSNEEEHLDSTRGSVHSLDAGLLLPSGDPFSKSDNDMFKDGLRRAQSTDSLGTSGSLQSKALGYNYKAKSAGNLDESDFGPLVGADSVSENFDTASLGSLQMPSGFMLTKDQERAIKAMTPEQEETASLLSSVTQGMESAYVSPSGYRLVSETEWNLLQKEVHNAGNKLGRRCDMCSNYEKQLQGIQIQEAETRDQVKKLQLMLRQANDQLEKTMKDKQELEDFIKQSSEDSSHQISALVLRAQASEILLEELQQGLSQAKRDVQEQMAVLMQSREQVSEELVRLQKDNDSLQGKHSLHVSLQQAEDFILPDTTEALRELVLKYREDIINVRTAADHVEEKLKAEILFLKEQIQAEQCLKENLEETLQLEIENCKEEIASISSLKAELERIKVEKGQLESTLREKSQQLESLQEIKISLEEQLKKETAAKATVEQLMFEEKNKAQRLQTELDVSEQVQRDFVKLSQTLQVQLERIRQADSLERIRAILNDTKLTDINQLPET
